Some of the results follow.
Test system: T1, CTL2-GFP (C. trachomatis L2/434/Bu, GFP-expressing)
T1 construct: L2/434/Bu, GFP-expressing
Parameters: species or system HeLa; Intracellular C. trachomatis growth in HeLa cells, bulk GFP fluorescence relative to DMSO
Settings: bulk GFP, single well; 28.5 h, 10 µM; inhibitor

Row | Compound | % of control remaining
1 | Cc1cc(C)c(NC(=O)CSc2n[nH]c(=O)n2C2CC2)c(C)c1 [CBK295598] | 103.701%
2 | Cc1cc(C)cc(N(CC(=O)Nc2ccccc2-c2ccccc2)S(=O)(=O)c2ccccc2)c1 [CBK265933] | 106.241%
3 | Cc1nc2ccc(C(=O)NC(C)Cc3cccs3)cc2[nH]1 (centres unmarked) [CBK282487] | 131.483%
4 | Fc1ccc(-c2cn(-c3ccc(OCc4ccccc4)c(F)c3)nn2)cc1 [CBK113121] | 173.54%
5 | COc1ccc(OC)c(NC(=O)CSc2ccc(-c3ccncc3)nn2)c1 [CBK287637] | 130.992%
6 | Cc1ccc(S(=O)(=O)NCCCN2CCOCC2)c(C)c1C [CBK264990] | 100%
7 | OCc1nnn(-c2ccncc2)c1CO [CBK288549] | 114.297%
8 | CC1CCN(CCCNS(=O)(=O)c2ccc(N3CCCC3=O)cc2)CC1 [CBK304220] | 140.741%
9 | Cc1csc(C(Cc2ccsc2)NC(=O)Cn2ccnc2)n1 (centres unmarked) [CBK285113] | 135.571%
10 | CC1CCCCN1Cc1nc2c(c(=O)n(C)c(=O)n2C)n1Cc1ccc(Br)cc1 (centres unmarked) [CBK269184] | 116.668%
11 | Cc1cccc(C2N3CCC4(CC3)c3[nH]c5ccccc5c3CCN24)n1 (centres unmarked) [CBK284435] | 135.961%
12 | O=C(c1ccccc1)c1ccc2[nH]nnc2c1 [CBK091608] | 124.357%
13 | OCc1cccc(-c2nccnc2NCc2ccncc2)c1 [CBK037446] | 110.226%
14 | CC(=O)NCCc1nc2ccc(NC(=O)Cn3nc(C)c4ccccc4c3=O)cc2n1C [CBK268249] | 87.1526%
15 | O=C(CO)N1CC2(CCN(Cc3ccc(OC(F)(F)F)cc3)CC2)c2ccccc21 [CBK131493] | 100.106%
16 | C=CCN1C(=O)CC2(C1=O)C(=O)N(CCCN(C)S(C)(=O)=O)c1ccc(Cl)cc12 (centres unmarked) [CBK075432] | 135.777%
17 | CCCC(=O)N(C)C1CCC2(CC1)CNC(=O)c1cc(C)ccc1O2 (centres unmarked) [CBK281694] | 128.063%
18 | Cc1nn(C(C)C)c(C)c1CN1CCC(c2c(C(=O)NC(C)C)sc3ccccc23)C1 (centres unmarked) [CBK285890] | 123.219%
19 | CCOc1cc([N+](=O)[O-])cc(C=O)c1OC(C)C(=O)O (centres unmarked) [CBK264642] | 125.86%
20 | O=C(Nc1cccc(F)c1)N1CCC(Cc2cccnc2)CC1 [CBK306369] | 121.24%
21 | Cc1ccc(/C(N)=N/OC(=O)COc2cccc3ccccc23)cc1 [CBK263009] | 112.138%
22 | O=C(NCC(F)(F)F)c1ccc(-c2ccccc2)nc1NCc1cccnc1 [CBK076551] | 148.879%
23 | Cc1ccc(NC(=O)CN2C(=O)S/C(=C\c3ccc4c(c3)n(C)c(=O)n4C)C2=O)cc1 [CBK264501] | 102.864%
24 | CC(Sc1nc(-c2ccccc2)nc2ccccc12)C(=O)Nc1ccccc1C(F)(F)F (centres unmarked) [CBK265795] | 122.211%
25 | O=C(NCc1ccccc1)C1(c2ccccc2)CCCC1 [CBK149540] | 168.469%

Three structures from above, sorted by molar mass, low to high:
Row | Compound | % of control remaining
25 | O=C(NCc1ccccc1)C1(c2ccccc2)CCCC1 [CBK149540] | 168.469%
13 | OCc1cccc(-c2nccnc2NCc2ccncc2)c1 [CBK037446] | 110.226%
9 | Cc1csc(C(Cc2ccsc2)NC(=O)Cn2ccnc2)n1 (centres unmarked) [CBK285113] | 135.571%

(continued)

Row | Compound | % of control remaining
26 | c1ccc(Cn2cc(-c3nccnc3OC3CCCCC3)cn2)cc1 [CBK107092] | 143.391%
27 | O=C(NCCN1CCOCC1)N1CCN(CCc2ccccc2)CC1 [CBK158908] | 131.821%
28 | Nc1cccc(-c2cc(C(=O)NCCc3cccnc3)cnc2-c2ccc(F)cc2)c1 [CBK038016] | 145.263%
29 | COc1cc(C(C)=O)ccc1OCCCN1CCC(O)(C(=O)c2cccc(C(F)(F)F)c2)CC1 [CBK024866C] | 112.925%
30 | CCCC/C=C/c1cncc(NCCO)n1 [CBK065419] | 180.199%
31 | CC1=C(C(=O)OC(C)C)C(c2cccc(I)c2)C2=C(CCCC2=O)N1 (centres unmarked) [CBK026317] | 135.258%
32 | COc1cccc(C(=O)C2=C(O)C(=O)N(CCCn3ccnc3)C2c2cccc(F)c2)c1 (centres unmarked) [CBK266419] | 112.671%
33 | Cc1ccc(Cn2ncc3c(NCCCN4CCOCC4)ncnc32)cc1 [CBK077470] | 100%
34 | Cc1cc(N2CCN(c3ccc(O)cc3)CC2)n2nc(-c3nccn3C)cc2n1 [CBK286188] | 132.472%
35 | Cc1cccc(NC(=S)NNC(=O)CCC(=O)O)c1 [CBK261542] | 100%
36 | CCN(CC)C(=O)CNS(=O)(=O)c1cc(Br)c(Cl)s1 [CBK034500] | 89.8616%
37 | OC1(CN2CCCC2)CCN(Cc2sccc2Cl)CC1 [CBK307491] | 100.669%
38 | CCNC(=O)C1CCCN(Cc2ncc(C)c(OC)c2C)C1 (centres unmarked) [CBK305081] | 136.657%
39 | NNC(=O)CSc1nnc(-c2ccccc2)n1-c1ccccc1 [CBK223486] | 97.3397%
40 | O=C1CC(N2CCN(c3ccccn3)CC2)C(=O)N1CCc1ccccc1 (centres unmarked) [CBK262282] | 100%
41 | FC(F)(F)c1cc(-c2cc(N3CCC(N4CCCCC4)CC3)ncn2)cc(C(F)(F)F)c1 [CBK037692] | 149.993%
42 | CCCOC1CCCN(Cc2c(C)n(CC(N)=O)c3ccccc23)C1 (centres unmarked) [CBK282797] | 121.547%
43 | O=C1N/C(=N/N=C\c2cccc([N+](=O)[O-])c2)SC1Cc1ccc(Br)cc1 (centres unmarked) [CBK263125] | 99.7216%
44 | COc1ccc(CCNC(=O)c2cnc3sc(C)cn3c2=O)cc1OC [CBK287709] | 79.9684%
45 | COc1ccc(NC(=O)NS(=O)(=O)c2sc3ccc(Cl)cc3c2C)cc1OC [CBK156300] | 117.325%
46 | Cn1cc(C2C[S+]([O-])CCN2Cc2csc3ccccc23)cn1 (centres unmarked) [CBK304085] | 128.013%
47 | CC(NC(=O)CCC(=O)O)C12CC3CC(CC(C3)C1)C2 (centres unmarked) [CBK287105] | 102.791%
48 | COc1ccc(NC(=O)CCC(=O)N2CCC(C(=O)O)CC2)cc1 [CBK286588] | 90.459%
49 | c1ccc2c(c1)OCC(c1nn3cnnc3s1)O2 (centres unmarked) [CBK269277] | 89.7016%
50 | COC(=O)c1c(NC(=S)NCc2ccccn2)sc(C(=O)N(C)C)c1C [CBK267055] | 159.822%
